# In paper PMC11612488:
# Results are given in words; binding and its absence hold for the method and conditions named. Binding seen in cells or lysates may run through a third protein. Some entries that bind do so weakly or less than the wild type. For some of these results: Tags and fused reporters may be left off the sequences shown.
# T1: endogenous BBX (bobby sox homolog) (mouse (endogenous in MC3T3-E1)) (UniProt Q8VBW5)
# T1 sequence: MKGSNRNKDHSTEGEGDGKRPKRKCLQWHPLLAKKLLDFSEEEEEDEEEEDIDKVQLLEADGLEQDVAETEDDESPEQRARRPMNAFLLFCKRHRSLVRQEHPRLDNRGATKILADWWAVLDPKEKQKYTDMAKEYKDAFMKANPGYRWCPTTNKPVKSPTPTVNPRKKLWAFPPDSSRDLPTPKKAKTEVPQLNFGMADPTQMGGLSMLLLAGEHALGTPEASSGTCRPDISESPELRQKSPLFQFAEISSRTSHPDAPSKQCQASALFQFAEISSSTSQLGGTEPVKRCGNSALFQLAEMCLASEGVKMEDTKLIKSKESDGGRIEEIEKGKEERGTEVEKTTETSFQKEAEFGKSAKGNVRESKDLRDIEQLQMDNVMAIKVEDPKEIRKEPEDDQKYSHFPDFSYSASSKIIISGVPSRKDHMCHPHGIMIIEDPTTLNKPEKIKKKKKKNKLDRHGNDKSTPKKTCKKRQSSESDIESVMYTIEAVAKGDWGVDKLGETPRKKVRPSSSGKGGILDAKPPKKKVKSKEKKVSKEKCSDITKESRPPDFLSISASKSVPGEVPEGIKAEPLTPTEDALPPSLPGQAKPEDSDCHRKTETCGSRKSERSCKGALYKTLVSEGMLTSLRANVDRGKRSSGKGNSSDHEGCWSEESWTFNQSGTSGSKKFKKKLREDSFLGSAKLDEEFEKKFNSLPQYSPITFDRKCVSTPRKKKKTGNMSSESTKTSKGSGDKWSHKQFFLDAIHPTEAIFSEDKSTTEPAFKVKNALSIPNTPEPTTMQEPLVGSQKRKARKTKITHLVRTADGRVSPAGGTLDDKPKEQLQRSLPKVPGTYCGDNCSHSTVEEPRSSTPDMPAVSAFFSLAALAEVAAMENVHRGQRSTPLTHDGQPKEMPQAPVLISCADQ
# T2: 2-Flag-tagged BBX (bobby sox homolog) (not stated (human or mouse cDNA cloned)) (UniProt Q8VBW5)
# T2 sequence: T1 sequence
# T3: 1,25(OH)2D3 receptor (VDR), overexpressed (not stated (human or mouse cDNA cloned)) (UniProt P48281)
# T3 sequence: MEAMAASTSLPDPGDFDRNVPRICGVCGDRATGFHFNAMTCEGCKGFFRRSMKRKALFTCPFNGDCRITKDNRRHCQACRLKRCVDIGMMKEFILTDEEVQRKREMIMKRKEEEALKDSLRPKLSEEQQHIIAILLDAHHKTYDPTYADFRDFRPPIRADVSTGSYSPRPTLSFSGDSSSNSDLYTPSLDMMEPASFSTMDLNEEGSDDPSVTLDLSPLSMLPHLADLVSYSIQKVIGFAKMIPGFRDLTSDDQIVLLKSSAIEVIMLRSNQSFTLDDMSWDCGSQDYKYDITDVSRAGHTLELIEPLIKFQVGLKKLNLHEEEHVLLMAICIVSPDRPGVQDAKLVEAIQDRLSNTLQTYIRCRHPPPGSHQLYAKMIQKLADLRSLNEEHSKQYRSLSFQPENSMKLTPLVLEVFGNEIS
# B1: endogenous 1,25(OH)2D3 receptor (VDR) (receptor, UniProt P48281 1-422)
# chain: T3 sequence
# B2: 1,25(OH)2D3 receptor (VDR), overexpressed (receptor, UniProt P48281 1-422)
# chain: T3 sequence
# B3: 2-Flag-tagged BBX (bobby sox homolog) (protein, UniProt Q8VBW5 1-907)
# chain: T1 sequence
# Assays:
# [1] = target: T1, endogenous BBX (bobby sox homolog) (mouse (endogenous in MC3T3-E1)); test: co-IP; endogenous proteins; MC3T3-E1 cells treated with or without 1,25(OH)2D3 (20 nM) for 30 min; immunoprecipitated with anti-BBX or anti-VDR antibodies; immunoblot
# [2] = target: T2, 2-Flag-tagged BBX (bobby sox homolog) (not stated (human or mouse cDNA cloned)); test: co-IP; MC3T3-E1 cells transfected with 2-Flag-tagged BBX and VDR plasmids, with or without 1,25(OH)2D3; RIPA lysates (600 ug) precleared, anti-Flag or anti-VDR at 4 °C overnight, Protein-A/G agarose 2 h; immunoblot with the corresponding antibodies
# [3] = target: T3, 1,25(OH)2D3 receptor (VDR), overexpressed (not stated (human or mouse cDNA cloned)); test: as above
binder,measurement,setting,value
B1,binding,[1],binds
same,binding,[2],binds
B2,binding,[2],binds
B3,binding,[3],binds
